In experiment [1] the target is T1, AtGyrA (LexA DNA-binding domain fusion) (A. thaliana) (UniProt Q9CAF6).
T1 sequence: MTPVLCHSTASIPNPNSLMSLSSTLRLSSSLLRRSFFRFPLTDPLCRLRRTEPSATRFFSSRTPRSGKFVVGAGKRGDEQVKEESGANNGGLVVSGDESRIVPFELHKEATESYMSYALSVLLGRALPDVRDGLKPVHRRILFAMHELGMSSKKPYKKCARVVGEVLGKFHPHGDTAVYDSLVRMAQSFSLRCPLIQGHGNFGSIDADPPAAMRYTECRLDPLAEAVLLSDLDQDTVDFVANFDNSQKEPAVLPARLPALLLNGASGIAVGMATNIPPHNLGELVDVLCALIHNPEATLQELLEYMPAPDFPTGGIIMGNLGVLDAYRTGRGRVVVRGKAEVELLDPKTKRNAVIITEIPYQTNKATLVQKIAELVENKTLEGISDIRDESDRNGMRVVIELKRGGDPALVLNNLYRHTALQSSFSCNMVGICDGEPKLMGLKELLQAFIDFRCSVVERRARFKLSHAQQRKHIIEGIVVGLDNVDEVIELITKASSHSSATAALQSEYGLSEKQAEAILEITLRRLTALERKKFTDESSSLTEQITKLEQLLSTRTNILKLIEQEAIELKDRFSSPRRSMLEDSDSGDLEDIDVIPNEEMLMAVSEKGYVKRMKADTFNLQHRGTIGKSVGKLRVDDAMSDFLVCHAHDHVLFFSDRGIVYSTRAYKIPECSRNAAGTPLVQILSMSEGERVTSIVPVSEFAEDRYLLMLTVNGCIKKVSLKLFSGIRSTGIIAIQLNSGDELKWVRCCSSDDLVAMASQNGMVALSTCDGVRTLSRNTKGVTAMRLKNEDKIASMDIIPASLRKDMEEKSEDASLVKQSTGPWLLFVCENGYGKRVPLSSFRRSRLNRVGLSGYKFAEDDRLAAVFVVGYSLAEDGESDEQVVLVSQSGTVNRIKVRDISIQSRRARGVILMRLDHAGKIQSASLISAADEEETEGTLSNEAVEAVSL
The experiment can be described thus: two-hybrid; Matchmaker LexA Two-Hybrid System (Clontech); bait fused to the LexA DNA-binding domain, prey fused to the B42 activation domain.

The target of experiment [2] is T2, AtGyrA (Hybrigenics two-hybrid service) (A. thaliana) (UniProt Q9CAF6).
T2 sequence: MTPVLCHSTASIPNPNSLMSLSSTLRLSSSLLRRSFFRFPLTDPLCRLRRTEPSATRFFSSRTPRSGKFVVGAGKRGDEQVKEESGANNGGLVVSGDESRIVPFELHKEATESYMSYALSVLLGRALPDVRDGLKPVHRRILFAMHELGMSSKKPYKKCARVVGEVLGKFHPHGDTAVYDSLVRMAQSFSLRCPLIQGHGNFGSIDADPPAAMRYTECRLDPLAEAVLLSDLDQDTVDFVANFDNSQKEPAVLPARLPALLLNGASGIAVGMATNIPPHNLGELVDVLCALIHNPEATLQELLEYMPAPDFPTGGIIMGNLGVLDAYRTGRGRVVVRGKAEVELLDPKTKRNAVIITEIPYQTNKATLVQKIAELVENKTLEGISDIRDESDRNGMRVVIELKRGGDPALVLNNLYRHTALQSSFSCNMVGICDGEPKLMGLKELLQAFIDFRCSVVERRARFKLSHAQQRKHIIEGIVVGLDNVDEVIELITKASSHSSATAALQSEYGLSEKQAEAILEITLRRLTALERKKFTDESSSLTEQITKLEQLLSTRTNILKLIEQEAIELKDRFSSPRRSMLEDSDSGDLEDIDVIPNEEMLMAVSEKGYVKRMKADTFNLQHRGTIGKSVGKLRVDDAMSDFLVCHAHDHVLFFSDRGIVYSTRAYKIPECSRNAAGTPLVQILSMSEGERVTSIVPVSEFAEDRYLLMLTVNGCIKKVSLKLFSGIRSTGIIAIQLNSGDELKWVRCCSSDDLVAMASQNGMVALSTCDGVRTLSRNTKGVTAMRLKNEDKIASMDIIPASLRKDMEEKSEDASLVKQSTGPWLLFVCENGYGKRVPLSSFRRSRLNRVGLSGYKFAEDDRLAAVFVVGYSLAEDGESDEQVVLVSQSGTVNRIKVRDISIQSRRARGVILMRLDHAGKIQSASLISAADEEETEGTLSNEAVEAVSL
The experiment is described as follows: two-hybrid; yeast two-hybrid service (Hybrigenics); AtGyrA or AtGyrB3 used as the bait.

Experiment [3] concerns the target T3, AtGyrB3 (Hybrigenics two-hybrid service) (A. thaliana) (UniProt Q8VY11).
T3 sequence: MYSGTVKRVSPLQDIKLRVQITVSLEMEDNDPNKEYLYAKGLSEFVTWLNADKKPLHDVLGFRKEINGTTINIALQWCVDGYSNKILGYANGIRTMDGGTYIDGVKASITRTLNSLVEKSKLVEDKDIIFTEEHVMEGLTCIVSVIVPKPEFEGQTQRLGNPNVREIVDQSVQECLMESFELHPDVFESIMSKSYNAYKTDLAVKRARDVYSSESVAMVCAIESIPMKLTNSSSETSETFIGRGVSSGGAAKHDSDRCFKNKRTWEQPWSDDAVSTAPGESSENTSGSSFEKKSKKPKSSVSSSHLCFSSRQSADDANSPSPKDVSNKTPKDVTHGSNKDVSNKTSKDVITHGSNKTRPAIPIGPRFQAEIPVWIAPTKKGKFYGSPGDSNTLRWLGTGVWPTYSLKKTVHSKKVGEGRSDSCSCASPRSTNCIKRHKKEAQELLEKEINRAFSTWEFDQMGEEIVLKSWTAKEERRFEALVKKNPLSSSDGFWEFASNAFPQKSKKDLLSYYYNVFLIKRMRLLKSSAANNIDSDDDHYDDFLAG
The description is as above.

Results are given in words; binding and its absence hold for the method and conditions named. Some binding calls cover weakened binding; strength is not graded here. For some assays here: Where a sequence is shown, tags or fusion partners need not be part of it.

B1: AtGyrB1 (B42 activation domain fusion) (protein, UniProt Q9SS38 1-730)
chain: MALVQRQHSYLLRYFRLMASRPRPRLFSHSLYPSLHRHSSALSSSTPRIKFQLANVFSQRLVQRNAVSPKSFMSSTMESLQESSTSKDYSSEHIQVLEGLDPVRKRPGMYIGSTGSRGLHHLVYEILDNAIDEAQAGFASKIDVVLHSDDSVSISDNGRGIPTDLHPATGKSSLETVLTVLHAGGKFGGKSSGYSVSGGLHGVGLSVVNALSEALEVIVRRDGMEFQQKYSRGKPVTTLTCHVLPPESRGTQGTCIRFWPDKEVFTTAIQFDHNTIAGRIRELAFLNPKVTISLKKEDDDPERDVYSEYFYAGGLTEYVSWLNTDKKPLHDVLGFRKEINGSTVDVSLQWCSDAYSDTMLGYANSIRTIDGGTHIEGVKASLTRTLNSLAKKLKVIKEKDISLSGEHVREGLTCIVSVKVPNPEFEGQTKTRLGNPEVRKIVDQSVQEYLTEYLELHPDVLESIISKSLNAYKAALAAKRARELVRSKSVLKSSSLPGKLADCSSTDPAESEIFIVEGDSAGGSAKQGRDRRFQAILPLRGKILNIERKDEAAMYKNEEIQNLILGLGLGVKGEDFNKENLRYHKIIILTDADVDGAHIRTLLLTFFFRYQRALFDAGCIYVGVPPLFKVERGKQAHYCYDDAALKKITASFPGNASYNIQRFKGLGEMMPAQLWETTMNPDTRILKQLVVDDAAETNMVFSSLMGARVDVRKELIKSAATRMNLENLDI
On to B1, for which the binding result in experiment [1] is recorded as “binds”.

B2: AtGyrB1 (Hybrigenics two-hybrid service) (protein, UniProt Q9SS38 1-730)
chain: MALVQRQHSYLLRYFRLMASRPRPRLFSHSLYPSLHRHSSALSSSTPRIKFQLANVFSQRLVQRNAVSPKSFMSSTMESLQESSTSKDYSSEHIQVLEGLDPVRKRPGMYIGSTGSRGLHHLVYEILDNAIDEAQAGFASKIDVVLHSDDSVSISDNGRGIPTDLHPATGKSSLETVLTVLHAGGKFGGKSSGYSVSGGLHGVGLSVVNALSEALEVIVRRDGMEFQQKYSRGKPVTTLTCHVLPPESRGTQGTCIRFWPDKEVFTTAIQFDHNTIAGRIRELAFLNPKVTISLKKEDDDPERDVYSEYFYAGGLTEYVSWLNTDKKPLHDVLGFRKEINGSTVDVSLQWCSDAYSDTMLGYANSIRTIDGGTHIEGVKASLTRTLNSLAKKLKVIKEKDISLSGEHVREGLTCIVSVKVPNPEFEGQTKTRLGNPEVRKIVDQSVQEYLTEYLELHPDVLESIISKSLNAYKAALAAKRARELVRSKSVLKSSSLPGKLADCSSTDPAESEIFIVEGDSAGGSAKQGRDRRFQAILPLRGKILNIERKDEAAMYKNEEIQNLILGLGLGVKGEDFNKENLRYHKIIILTDADVDGAHIRTLLLTFFFRYQRALFDAGCIYVGVPPLFKVERGKQAHYCYDDAALKKITASFPGNASYNIQRFKGLGEMMPAQLWETTMNPDTRILKQLVVDDAAETNMVFSSLMGARVDVRKELIKSAATRMNLENLDI
Turning to B2, the binding result is reported as “binds” in experiment [2] and “no binding” in experiment [3].

B3: transcription factor AtMYB124 (protein, UniProt Q94FL6 1-436)
chain: MEDTKKKKKKNINNNQDSKKKERHIVTWSQEEDVILREQITLHGTENWAIIASKFKDKSTRQCRRRWYTYLNSDFKRGGWSPEEDMLLCEAQRVFGNRWTEIAKVVSGRTDNAVKNRFTTLCKKRAKHEAMTKDSNSNTKRMLFLDGISTPRKSENETPIAKKLKRSHILDLTEISNYGRAEACVNQQIRSPFSVLARNATGIDSLEEQNQTSNVNESDGEGMFLKKDDPKVTALMQQAELLSSLAQKVNADNTEQSMENAWKVLQDFLNKGKENDLFRYGIPDIDFKIEEFKDLIEDLRSGYEDNQLSWRQPDLHDSPASSEYSSGSTIMVDQSGDKTQPFSADTQTEHKQVGEELLVPKNPDENMPISGEEKFSSPIQVTPLFRSLADGIPSPQFSESERSFLLKTLGIESSSPCPSANPSKPPPCKRVLLHSL
Turning to B3, the binding result in experiment [2] is on record as “binds”.

B4: AtGyrA (Hybrigenics two-hybrid service) (protein, UniProt Q9CAF6 1-950)
chain: MTPVLCHSTASIPNPNSLMSLSSTLRLSSSLLRRSFFRFPLTDPLCRLRRTEPSATRFFSSRTPRSGKFVVGAGKRGDEQVKEESGANNGGLVVSGDESRIVPFELHKEATESYMSYALSVLLGRALPDVRDGLKPVHRRILFAMHELGMSSKKPYKKCARVVGEVLGKFHPHGDTAVYDSLVRMAQSFSLRCPLIQGHGNFGSIDADPPAAMRYTECRLDPLAEAVLLSDLDQDTVDFVANFDNSQKEPAVLPARLPALLLNGASGIAVGMATNIPPHNLGELVDVLCALIHNPEATLQELLEYMPAPDFPTGGIIMGNLGVLDAYRTGRGRVVVRGKAEVELLDPKTKRNAVIITEIPYQTNKATLVQKIAELVENKTLEGISDIRDESDRNGMRVVIELKRGGDPALVLNNLYRHTALQSSFSCNMVGICDGEPKLMGLKELLQAFIDFRCSVVERRARFKLSHAQQRKHIIEGIVVGLDNVDEVIELITKASSHSSATAALQSEYGLSEKQAEAILEITLRRLTALERKKFTDESSSLTEQITKLEQLLSTRTNILKLIEQEAIELKDRFSSPRRSMLEDSDSGDLEDIDVIPNEEMLMAVSEKGYVKRMKADTFNLQHRGTIGKSVGKLRVDDAMSDFLVCHAHDHVLFFSDRGIVYSTRAYKIPECSRNAAGTPLVQILSMSEGERVTSIVPVSEFAEDRYLLMLTVNGCIKKVSLKLFSGIRSTGIIAIQLNSGDELKWVRCCSSDDLVAMASQNGMVALSTCDGVRTLSRNTKGVTAMRLKNEDKIASMDIIPASLRKDMEEKSEDASLVKQSTGPWLLFVCENGYGKRVPLSSFRRSRLNRVGLSGYKFAEDDRLAAVFVVGYSLAEDGESDEQVVLVSQSGTVNRIKVRDISIQSRRARGVILMRLDHAGKIQSASLISAADEEETEGTLSNEAVEAVSL
Regarding B4, the binding entry in experiment [3] is listed as “no binding”.

B5: AtGyrB3 (Hybrigenics two-hybrid service) (protein, UniProt Q8VY11 1-546)
chain: MYSGTVKRVSPLQDIKLRVQITVSLEMEDNDPNKEYLYAKGLSEFVTWLNADKKPLHDVLGFRKEINGTTINIALQWCVDGYSNKILGYANGIRTMDGGTYIDGVKASITRTLNSLVEKSKLVEDKDIIFTEEHVMEGLTCIVSVIVPKPEFEGQTQRLGNPNVREIVDQSVQECLMESFELHPDVFESIMSKSYNAYKTDLAVKRARDVYSSESVAMVCAIESIPMKLTNSSSETSETFIGRGVSSGGAAKHDSDRCFKNKRTWEQPWSDDAVSTAPGESSENTSGSSFEKKSKKPKSSVSSSHLCFSSRQSADDANSPSPKDVSNKTPKDVTHGSNKDVSNKTSKDVITHGSNKTRPAIPIGPRFQAEIPVWIAPTKKGKFYGSPGDSNTLRWLGTGVWPTYSLKKTVHSKKVGEGRSDSCSCASPRSTNCIKRHKKEAQELLEKEINRAFSTWEFDQMGEEIVLKSWTAKEERRFEALVKKNPLSSSDGFWEFASNAFPQKSKKDLLSYYYNVFLIKRMRLLKSSAANNIDSDDDHYDDFLAG
In the case of B5, the binding entry in experiment [2] is “no binding”.

B6: AtGyrB2 (Hybrigenics two-hybrid service) (protein, UniProt Q94BZ7 1-732)
chain: MALLQRASYLRLYYLRLMGSRPRLFSSSLSPALHRHSSTLSSPPFSSPSPSFRLKFQLTSVLSQRLIQRNAISSRFLSTEASQETTTSKGYSSEQIQVLEGLDPVRKRPGMYIGSTGSRGLHHLVYEILDNAIDEAQAGYASKVDVVLHADGSVSVVDNGRGIPTDLHPATKKSSLETVLTVLHAGGKFGGTSSGYSVSGGLHGVGLSVVNALSEALEVSVWRDGMEHKQNYSRGKPITTLTCRVLPLESKGTKGTSIRFWPDKEVFTTAIEFDHNTIAGRIRELAFLNPKVTISLKKEDDDPEKTQYSEYSFAGGLTEYVSWLNTDKNPIHDVLGFRREINGATVDVALQWCSDAYSDTMLGYANSIRTIDGGTHIEGVKASLTRTLNTLAKKSKTVKEKDISLSGEHVREGLTCIVSVKVPNPEFEGQTKTRLGNPEVRKIVDQSVQEYLTEFLELHPDILESIISKSLNAYKAALAAKRARELVRSKSVLKSSSLPGKLADCSSTDPEVSEIFIVEGDSAGGSAKQGRDRRFQAILPLRGKILNIERKDEAAMYKNEEIQNLILGLGLGVKGEDFKKENLRYHKIIILTDADVDGAHIRTLLLTFFFRYQRALFDAGCIYVGVPPLFKVERGKNAQYCYDDADLKKITSNFPANASYNIQRFKGLGEMMPEQLWETTMNPETRILKQLVVDDIAEANMTFSSLMGARVDVRKELIKNAATRINLQRLDI
On to B6, for which the binding entry in experiment [2] and in experiment [3] was “no binding” in each case.

(Values after publication PMC2845627.)
